According to US20110230501A1, “PHARMACEUTICAL COMPOSITIONS FOR THE TREATMENT OF DIABETES MELLITUS” (IPCA Laboratories Ltd., priority 2008, published 2011):

System: alloxan induced diabetic rats
Assay: Alloxan induced diabetic rats: hydroxychloroquine with metformin
Assay type: in vivo, Wistar rats
Conditions: HCQ 160 or MET 500 mg/kg/day p.o.
Procedure: Thirty Wistar rats weighing 150-200 g of either sex were divided into six groups consisting of five rats each. Experimental diabetes was induced in rats by injecting alloxan monohydrate intraperitonially at a dose of 90 mg/kg body weight. Rats with blood sugar level of 250-350 mg/dl, were considered as diabetic and employed in the study. Group 1 (normal control) consisted of normal rats that neither received alloxan monohydrate nor any drug. Group 2 served as diabetic control which received vehicle orally. […] The study drugs were administered for nine days.

SMILES	Blood Glucose (mg/dl) Initial [mg/dL]	Body Weight (g) Initial [g]
CCN(CCO)CCCC(C)Nc1ccnc2cc(Cl)ccc12 (stereo not shown) [HCQ, hydroxychloroquine]	296.00 ± 15.93	169.2 ± 10.20
CN(C)C(=N)N=C(N)N [MET, metformin]	283.4 ± 23.49	181.2 ± 10.40
